From PubChem BioAssay (Tox21)
Values joined by “and” are separate entries in the source; they are usually repeats but may differ in a detail not shown here. Identical values can stand only once. Inconclusive results, whose numbers are uncertain, are shown with a selection of clear calls. For some of these results: Where the call is inconclusive, the potency comes from a doubtful curve fit. Active and inactive are the calls of the source. Unless noted, calls follow the shape of the full dose curve.

Protein sequences, listed by entry. Tags and fused reporters are not part of them.
UniProt P28223, whole entry, looked up: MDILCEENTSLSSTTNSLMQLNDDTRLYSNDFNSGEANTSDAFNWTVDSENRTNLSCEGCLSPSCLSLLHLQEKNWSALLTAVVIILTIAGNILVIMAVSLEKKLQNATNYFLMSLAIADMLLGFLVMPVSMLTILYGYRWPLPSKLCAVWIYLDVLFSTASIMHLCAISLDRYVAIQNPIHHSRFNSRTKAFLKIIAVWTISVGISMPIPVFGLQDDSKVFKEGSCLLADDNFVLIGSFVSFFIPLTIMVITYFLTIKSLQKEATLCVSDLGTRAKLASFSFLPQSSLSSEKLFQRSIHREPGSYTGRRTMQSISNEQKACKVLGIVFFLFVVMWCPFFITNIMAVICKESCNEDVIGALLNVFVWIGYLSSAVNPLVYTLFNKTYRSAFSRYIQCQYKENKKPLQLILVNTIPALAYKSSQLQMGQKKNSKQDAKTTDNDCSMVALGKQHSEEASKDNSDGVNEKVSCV
UniProt P14416, whole entry, looked up: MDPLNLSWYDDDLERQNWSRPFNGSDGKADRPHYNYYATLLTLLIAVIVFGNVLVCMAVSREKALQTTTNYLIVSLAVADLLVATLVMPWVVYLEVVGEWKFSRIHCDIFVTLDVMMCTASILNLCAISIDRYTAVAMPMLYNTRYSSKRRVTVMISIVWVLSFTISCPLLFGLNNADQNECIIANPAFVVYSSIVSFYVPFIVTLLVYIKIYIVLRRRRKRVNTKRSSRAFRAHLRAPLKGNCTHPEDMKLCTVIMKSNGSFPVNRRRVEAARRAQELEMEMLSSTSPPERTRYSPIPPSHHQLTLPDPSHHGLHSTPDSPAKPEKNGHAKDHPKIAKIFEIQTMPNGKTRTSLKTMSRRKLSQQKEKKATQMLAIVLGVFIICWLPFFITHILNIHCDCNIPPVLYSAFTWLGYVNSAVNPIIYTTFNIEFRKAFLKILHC

How the values were obtained:
[1] = Nuclear factor erythroid 2-related factor 2/antioxidant responsive element (Nrf2/ARE) small molecule agonists: luciferase reporter gene qHTS assay in human keratinocytes (AID 1919969); conditions: KeratinoSens HaCaT ARE-luciferase, luminescence, 24 h; activity, positive = activation: at 92.4 µM (top of the series); also: nearly all actives have a fitted effect of over 35% in size; also: potency is read from the fitted curve at half-maximal effect; as to activity, positive = activation: % is scaled to controls: 0 for no effect and ±100 for the full control effect
[2] = p53 small molecule agonists, cell-based qHTS assay with rat liver microsomes: qHTS cell viability counter screen (AID 1963580); also: nearly all actives have a fitted effect of over 45% in size; also: potency is read from the fitted curve at half-maximal effect
Summary of the method: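 Cytotoxicity counter screen: intracellular ATP measured by CellTiter-Glo luminescence in the same wells as the beta-lactamase reporter read, on HCT-116 p53RE-bla cells exposed 16 h at 37 C to compounds with rat liver microsomes and NADPH, each 0.5 mg/mL final.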

[3] = cAMP Responsive Elements (CRE) small molecule antagonists, cell-based qHTS assay (AID 1963591; active = well fitted inhibition curve with a large enough effect in the signal ratio in the repeat runs, not every such curve was filed as active; inconclusive = weak or mixed curves, or effect the other way; the % refers to the signal ratio; also: potency is read from the fitted curve at half-maximal effect; as to activity change, negative = inhibition: % is scaled to controls: 0 for no effect and ±100 for the full control effect); conditions: CRE-bla HEK293T, beta-lactamase FRET ratio; activity change, negative = inhibition: at 92.4 µM (top of the series) unless noted
Summary of the method: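 Antagonist mode: compounds are added alongside the adenylyl cyclase activator NKH477 (0.25 uM final) to CRE-bla HEK293T cells for 3 h. LiveBLAzer FRET substrate, 2 h at room temperature, reports bla expression.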

[4] = biological target: Beta-2 adrenergic receptor (Homo sapiens) (UniProt P07550); experiment: Adrenergic beta2 receptor (ADRB2) small molecule agonists, cell-based qHTS assay (AID 1963593); conditions: CHO-ADRB2 cells, cAMP HTRF, 30 min; also: potency is read from the fitted curve at half-maximal effect;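 as to activation: CHO cells stably overexpressing human ADRB2; % is scaled to controls: 0 for no effect and ±100 for the full control effect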
Summary of the method: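 CHO cells stably over-expressing ADRB2 were plated overnight at 37C, then dosed with compounds plus a stimulation mix containing 100uM IBMX and 25uM Ro-20-1724 for 0.5hr at room temperature. cAMP was measured by HTRF competition, 1hr.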

[5] = biological target: Beta-2 adrenergic receptor (Homo sapiens) (UniProt P07550); experiment: Adrenergic beta2 receptor (ADRB2) small molecule antagonists, cell-based qHTS assay (AID 1963592); conditions: CHO-ADRB2 cells, isoproterenol-stimulated cAMP HTRF ratio, 0.5 h; activity change, negative = inhibition: at 92.4 µM (top of the series) unless noted; also: nearly all actives have a fitted effect of over 50% in size; also: potency is read from the fitted curve at half-maximal effect
Summary of the method: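 Assay format: CHO-ADRB2 cells, 18-20hr seeding at 37C/5% CO2, then compound plus 1nM isoproterenol agonist mix for 0.5hr RT. Homogeneous time-resolved fluorescence cAMP detection after 1hr, expressed as 665/615 nm ratio.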

[6] = cAMP Responsive Elements (CRE) small molecule agonists, cell-based qHTS assay (AID 1963590); conditions: CRE-bla HEK293T, beta-lactamase FRET ratio, 3 h; activation: at 92.4 µM (top of the series) unless noted; also: potency is read from the fitted curve at half-maximal effect
Summary of the method: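 Agonist mode: compound added to CRE-bla HEK 293T cells (2,000/well, 18 h after plating) for 3 h at 37 C/5% CO2. Reporter activity detected via FRET beta-lactamase substrate, 2 h room-temperature loading.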

[7] = p53 small molecule agonists, cell-based qHTS assay: qHTS cell viability counter screen (AID 1963581); also: potency is read from the fitted curve at half-maximal effect; nearly all actives have a fitted effect of over 45% in size
Summary of the method: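 Counter screen read by CellTiter-Glo luminescence (ATP content, 30 min at room temperature), run in the same wells as the beta-lactamase reporter read. HCT-116 p53RE-bla cells saw compounds for 16 h at 37 C.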

[8] = p53 small molecule agonists, cell-based qHTS assay (AID 1963582; active = well fitted activation curve with a large enough effect in the signal ratio in the repeat runs, not every such curve was filed as active; inconclusive = weak or mixed curves; the % refers to the signal ratio; also: potency is read from the fitted curve at half-maximal effect); conditions: HCT-116 p53RE-bla reporter, beta-lactamase FRET ratio, 16 h; activation: at 66 µM (top of the series) unless noted
Summary of the method: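 Read-out is beta-lactamase FRET fluorescence after 2 h at room temperature with LiveBLAzer B/G substrate. p53 response element-bla cells were treated 16 h at 37 C with compounds in DMSO, added 5 h after seeding.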

[9] = biological target: 5-hydroxytryptamine receptor 2A (Homo sapiens) (UniProt P28223); experiment: 5-hydroxytryptamine receptor 2A (HTR2A) small molecule antagonists, cell-based qHTS assay (AID 1963586); also: % is scaled to controls: 0 for no effect and ±100 for the full control effect; nearly all actives have a fitted effect of over 45% in size
Summary of the method: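 CHO cells stably expressing human HTR2A were plated for 18 h at 37 C, then loaded with calcium dye for 1 h. Compounds were preincubated 5 min at room temperature before DOI (4 nM solution) was added. Kinetic fluorescence was read for 3 min.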

[10] = biological target: D(2) dopamine receptor (Homo sapiens) (UniProt P14416); experiment: Dopamine D2 receptor (DRD2) small molecule antagonists, cell-based qHTS assay (AID 1963595; active = well fitted inhibition curve with a large enough effect in the signal ratio in the repeat runs, with a control signal flat; inconclusive = weak or mixed curves, or effect the other way; the % refers to the signal ratio; also: % is scaled to controls: 0 for no effect and ±100 for the full control effect); conditions: HEK293-DRD2 cAMP HTRF antagonist mode; activity change, negative = inhibition: at 92.4 µM (top of the series) unless noted
Summary of the method: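 Antagonism was scored as restored cAMP in HEK293-DRD2 cells. These cells were stimulated with 200 nM NKH477 and 12 nM quinpirole for 30 min at room temperature, in the presence of 0.1 mM Ro20-1724.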

[11] = biological target: D(2) dopamine receptor (Homo sapiens) (UniProt P14416); experiment: Dopamine D2 receptor (DRD2) small molecule agonists, cell-based qHTS assay (AID 1963594); conditions: HEK293-DRD2 cAMP HTRF, agonist mode, 30 min; activation: at 92.4 µM (top of the series) unless noted; also: nearly all actives have a fitted effect of over 35% in size; also: potency is read from the fitted curve at half-maximal effect
Summary of the method: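 HEK293 cells stably expressing human DRD2, pre-treated with PDE inhibitor Ro20-1724 (0.1 mM final) and compound 10 min at room temperature, then stimulated with NKH477 (200nM […]) for 30 min. cAMP read by HTRF (665/620 nm).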

[12] = activation: at 92.4 µM (top of the series) unless noted

**Q.** For `CC(C)c1ccccc1`, which Potency [1] is on record?
**A.** inconclusive: 71.2 µM [activator, single point]

**Q.** What about the Potency [2] of the same molecule?
**A.** inconclusive: 53.3 µM [cytotoxic, single point]

**Q.** What about the activity change, negative = inhibition [3] of the same molecule?
**A.** inconclusive: 4.47%

**Q.** And the activation [4, 12]?
**A.** inconclusive: 16.2%

**Q.** For `O=C(O)C(=O)O`, which Potency [1] is on record?
**A.** inconclusive: 4.34 µM [activator, single point]

**Q.** What about the Potency [2] of the same molecule?
**A.** inconclusive: 52.2 µM [cytotoxic, single point]

**Q.** What about the Potency [5] of the same molecule?
**A.** inconclusive: 27.3 µM [inhibitor, single point]

**Q.** What about the activation ([4]; at 8.39 µM (top of the series)) of the same molecule?
**A.** inconclusive: 0.954%

**Q.** What about the activation ([4]; at 92.4 µM (top of the series)) of the same molecule?
**A.** inconclusive: 24% and inconclusive: 7.49%

**Q.** With `CCCCCCC1CCC(=O)O1` (configuration not stated) as the molecule, how does the Potency [1] read?
**A.** inconclusive: 70.2 µM [activator, single point]

**Q.** What about the Potency [2] of the same molecule?
**A.** inactive

**Q.** What about the Potency [6] of the same molecule?
**A.** inconclusive: 70.2 µM [rising, partial curve, poor fit]

**Q.** What about the Potency [4, 12] of the same molecule?
**A.** inconclusive: 78.8 µM [inhibitor, partial curve, poor fit]

**Q.** For `CCCCCCCC(=O)OCC`, which Potency [1] is on record?
**A.** inactive

**Q.** What about the Potency [2] of the same molecule?
**A.** inconclusive: 0.162 µM [cytotoxic, single point]

**Q.** And the Potency [6]?
**A.** inactive

**Q.** And the activation [4, 12]?
**A.** inconclusive: -0.0448%

**Q.** Which Potency [1] does the source give for `CCCCCCOC(=O)c1ccccc1` here?
**A.** inconclusive: 0.611 µM [activator, single point]

**Q.** And the Potency [7]?
**A.** inconclusive: 20.4 µM [cytotoxic, partial curve, poor fit]

**Q.** What about the Potency [8] of the same molecule?
**A.** inconclusive: 51.3 µM [rising, single point]

**Q.** And the Potency [9]?
**A.** inactive

**Q.** What about the activity change, negative = inhibition [3] of the same molecule?
**A.** inconclusive: 22.4%

**Q.** And the activation [4, 12]?
**A.** inconclusive: -29%

**Q.** With `CCCCCC(C)OC(=O)COc1ccc(Cl)c2cccnc12` (configuration not stated) as the molecule, how does the Potency [1] read?
**A.** inconclusive: 68.6 µM [activator, single point]

**Q.** And the Potency [7]?
**A.** inconclusive: 1.82 µM [cytotoxic, single point]

**Q.** And the Potency [8]?
**A.** inactive

**Q.** What about the Potency [6] of the same molecule?
**A.** inconclusive: 68.6 µM [fluorescent, single point]

**Q.** And the Potency [10]?
**A.** inactive

**Q.** Which results are given for `CCCCCCCCCCCCCCCC`?
**A.** Potency [1]: inactive; Potency [2]: inactive; Potency [5]: inactive; Potency [4, 12]: inactive; Potency [10]: inactive

**Q.** With `CCc1ccc2c(c1)C(=O)c1ccccc1C2=O` as the molecule, how does the Potency [1] read?
**A.** inconclusive: 9.69 µM [activator, partial curve]

**Q.** And the Potency [2]?
**A.** inconclusive: 36.3 µM [rising, partial curve]

**Q.** What about the Potency [6] of the same molecule?
**A.** inconclusive: 30.6 µM [rising, partial curve]

**Q.** What about the Potency [3] of the same molecule?
**A.** inconclusive: 43.3 µM [activator, partial curve, poor fit]

**Q.** And the Potency [4, 12]?
**A.** inactive

**Q.** With `O=C(Cl)c1cc(C(=O)Cl)cc(C(=O)Cl)c1` as the molecule, how does the Potency [1] read?
**A.** inconclusive: 68.6 µM [activator, single point]

**Q.** What about the Potency [2] of the same molecule?
**A.** inactive

**Q.** What about the Potency [3] of the same molecule?
**A.** inconclusive: 34.4 µM [activator, partial curve]

**Q.** And the activation [4, 12]?
**A.** inconclusive: 54%

**Q.** Which Potency [1] does the source give for `COC(C(=O)O)c1ccccc1` (configuration not stated) here?
**A.** inconclusive: 27.3 µM [activator, single point]

**Q.** What about the Potency [2] of the same molecule?
**A.** inactive

**Q.** What about the Potency [11] of the same molecule?
**A.** inactive

**Q.** For `C=C1CCC2CC1C2(C)C` (configuration not stated), which Potency [5] is on record?
**A.** inactive

**Q.** Which Potency [5] does the source give for `O=C(O)c1cccc(Oc2ccccc2)c1` here?
**A.** inactive

**Q.** With `CCCCCCCCCCCC(=O)OC[C@@H](O)[C@H]1OC[C@H](OCCO)[C@H]1OCCO` as the molecule, how does the Potency [1] read?
**A.** active: 23.7 µM

**Q.** And the Potency [8]?
**A.** inactive

**Q.** And the Potency [3]?
**A.** inactive

**Q.** And the Potency [4, 12]?
**A.** inactive

**Q.** Which results are given for `COC(=O)/C=C/C(C)=C\C=C\C(C)=C\C=C\C=C(C)\C=C\C=C(C)\C=C\C(=O)O`?
**A.** Potency [1]: inconclusive: 68.6 µM [activator, single point]; Potency [8]: inconclusive: 45.8 µM [rising, single point]; activity change, negative = inhibition [3]: inconclusive: 13.6%; Potency [4, 12]: inconclusive: 10.9 µM [inhibitor, partial curve, poor fit]

**Q.** What does the source list for `C=C(C)C(=O)OCCOCCOCCOCCOC(=O)C(=C)C`?
**A.** Potency [1]: inconclusive: 68.6 µM [activator, single point]; Potency [8]: inactive; Potency [6]: inconclusive: 61.1 µM [rising, single point]; Potency [3]: inconclusive: 54.5 µM [activator]

**Q.** Which Potency [1] does the source give for `CC1=C(CC(=O)O)c2cc(F)ccc2/C1=C\c1ccc(S(C)=O)cc1` (configuration not stated) here?
**A.** inconclusive: 77 µM [activator, single point]

**Q.** And the Potency [8]?
**A.** inconclusive: 16.2 µM [rising, partial curve] and inconclusive: 15.8 µM [rising, partial curve]

**Q.** What about the Potency [6] of the same molecule?
**A.** inconclusive: 68.6 µM and inconclusive: 26.6 µM [fluorescent, partial curve]

**Q.** What about the Potency [3] of the same molecule?
**A.** inconclusive: 61.1 µM [fluorescent, partial curve] and inconclusive: 26.6 µM [fluorescent, partial curve]

**Q.** What about the activation [4, 12] of the same molecule?
**A.** inconclusive: -25.7%

**Q.** And the activation ([4]; at 42.5 µM (top of the series))?
**A.** inactive: 18.6%

**Q.** What about the Potency [11] of the same molecule?
**A.** inconclusive: 0.596 µM [falling, single point]

**Q.** And the activity change, negative = inhibition [10]?
**A.** inconclusive: -16.1%
